Laboratory results: PubChem BioAssay AID1159618 (Peter MacCallum Cancer Centre, 2016)
The deposit covers 153 reagents; below is a random part of them. Over the whole deposit, 111 (73%) got an active call. 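Migration not corrected for cell number; some knock-downs also lowered nuclei counts, so reduced closure may partly reflect fewer cells.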 Entries without a mark were called inactive. Further read-outs or replicates are left out here. Not stated in the record: the time to read-out.

Purpose: 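Retest earlier hits for effects on endothelial scratch closure in two cell types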 (follow-up of hits)
Cell system: human HMBEC blood microvascular and HDLEC dermal lymphatic endothelial cells
Reagents: siRNA pool against human genes, 40 nM
Measurement: 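Scratch wounds imaged automatically; migrated area scaled to mock-transfected mean and averaged across two replicates, with per-well nuclei counts recorded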
Reading the numbers: migration vs mock, HMBEC and migration vs mock, HDLEC: higher = more migration into the scratch
Active means: 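a knock-down counts as active if migrated area in either cell type is under 0.65 of the mock level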
Meaning of the calls: active = migration impaired; inactive = no change

For NFKBIZ, the entry reads cell type with impaired migration impaired in both blood and lymphatic cells (active); migration vs mock, HMBEC 0.532; migration vs mock, HDLEC 0.619.
RNASE7 scored cell type with impaired migration impaired in both blood and lymphatic cells (active); migration vs mock, HMBEC 0.534; migration vs mock, HDLEC 0.554.
Silencing of UHMK1 gave: cell type with impaired migration impaired only in blood endothelial cells (active); migration vs mock, HMBEC 0.606; migration vs mock, HDLEC 0.689.
AKR1C6P showed cell type with impaired migration no change in either cell type; migration vs mock, HMBEC 0.787; migration vs mock, HDLEC 0.8.
Silencing of STK38 gave: cell type with impaired migration impaired in both blood and lymphatic cells (active); migration vs mock, HMBEC 0.463; migration vs mock, HDLEC 0.563.
ATM scored cell type with impaired migration impaired only in blood endothelial cells (active); migration vs mock, HMBEC 0.518; migration vs mock, HDLEC 0.869.
SEPTIN4 showed cell type with impaired migration impaired in both blood and lymphatic cells (active); migration vs mock, HMBEC 0.266; migration vs mock, HDLEC 0.0189.
Depletion of TPST2 resulted in: cell type with impaired migration impaired in both blood and lymphatic cells (active); migration vs mock, HMBEC 0.404; migration vs mock, HDLEC 0.607.
ZNF76 gave cell type with impaired migration impaired in both blood and lymphatic cells (active); migration vs mock, HMBEC 0.383; migration vs mock, HDLEC -0.0574.
TNFRSF1B scored cell type with impaired migration impaired in both blood and lymphatic cells (active); migration vs mock, HMBEC 0.253; migration vs mock, HDLEC 0.253.

Reagents above marked active (9):
NFKBIZ — cell type with impaired migration: impaired in both blood and lymphatic cells (active); migration vs mock, HMBEC: 0.532; migration vs mock, HDLEC: 0.619
RNASE7 — cell type with impaired migration: impaired in both blood and lymphatic cells (active); migration vs mock, HMBEC: 0.534; migration vs mock, HDLEC: 0.554
UHMK1 — cell type with impaired migration: impaired only in blood endothelial cells (active); migration vs mock, HMBEC: 0.606; migration vs mock, HDLEC: 0.689
STK38 — cell type with impaired migration: impaired in both blood and lymphatic cells (active); migration vs mock, HMBEC: 0.463; migration vs mock, HDLEC: 0.563
ATM — cell type with impaired migration: impaired only in blood endothelial cells (active); migration vs mock, HMBEC: 0.518; migration vs mock, HDLEC: 0.869
SEPTIN4 — cell type with impaired migration: impaired in both blood and lymphatic cells (active); migration vs mock, HMBEC: 0.266; migration vs mock, HDLEC: 0.0189
TPST2 — cell type with impaired migration: impaired in both blood and lymphatic cells (active); migration vs mock, HMBEC: 0.404; migration vs mock, HDLEC: 0.607
ZNF76 — cell type with impaired migration: impaired in both blood and lymphatic cells (active); migration vs mock, HMBEC: 0.383; migration vs mock, HDLEC: -0.0574
TNFRSF1B — cell type with impaired migration: impaired in both blood and lymphatic cells (active); migration vs mock, HMBEC: 0.253; migration vs mock, HDLEC: 0.253

Further results follow.
FLT3 showed cell type with impaired migration no change in either cell type; migration vs mock, HMBEC 0.804; migration vs mock, HDLEC 0.948.
For KATNIP, the entry reads cell type with impaired migration no change in either cell type; migration vs mock, HMBEC 0.744; migration vs mock, HDLEC 0.781.
With knock-down of LGALS1, the record shows cell type with impaired migration impaired in both blood and lymphatic cells (active); migration vs mock, HMBEC 0.451; migration vs mock, HDLEC 0.25.
Knock-down of NXF1 gave: cell type with impaired migration impaired in both blood and lymphatic cells (active); migration vs mock, HMBEC 0.542; migration vs mock, HDLEC 0.589.
FBXO4 gave cell type with impaired migration no change in either cell type; migration vs mock, HMBEC 0.92; migration vs mock, HDLEC 0.69.
GPR152 gave cell type with impaired migration impaired in both blood and lymphatic cells (active); migration vs mock, HMBEC 0.116; migration vs mock, HDLEC 0.107.
Knock-down of FCRL2 came out at: cell type with impaired migration impaired in both blood and lymphatic cells (active); migration vs mock, HMBEC 0.594; migration vs mock, HDLEC 0.51.
With knock-down of ISL2 the results were cell type with impaired migration no change in either cell type; migration vs mock, HMBEC 0.798; migration vs mock, HDLEC 0.99.
Knock-down of MIEF1 gave: cell type with impaired migration impaired only in lymphatic endothelial cells (active); migration vs mock, HMBEC 0.737; migration vs mock, HDLEC 0.632.
KANSL1 showed cell type with impaired migration impaired only in blood endothelial cells (active); migration vs mock, HMBEC 0.619; migration vs mock, HDLEC 0.867.
JHY showed cell type with impaired migration no change in either cell type; migration vs mock, HMBEC 0.712; migration vs mock, HDLEC 0.859.
After knock-down of RET the results were cell type with impaired migration no change in either cell type; migration vs mock, HMBEC 0.937; migration vs mock, HDLEC 0.787.
Against SCGB1C1 the deposit lists cell type with impaired migration impaired in both blood and lymphatic cells (active); migration vs mock, HMBEC 0.632; migration vs mock, HDLEC 0.342.
Against BTK, the entry reads cell type with impaired migration impaired only in lymphatic endothelial cells (active); migration vs mock, HMBEC 0.884; migration vs mock, HDLEC 0.572.
With knock-down of TES, the record shows cell type with impaired migration impaired in both blood and lymphatic cells (active); migration vs mock, HMBEC 0.376; migration vs mock, HDLEC 0.539.
Against SRMS the deposit lists cell type with impaired migration impaired only in blood endothelial cells (active); migration vs mock, HMBEC 0.643; migration vs mock, HDLEC 0.785.
PPP1CA showed cell type with impaired migration impaired only in lymphatic endothelial cells (active); migration vs mock, HMBEC 0.774; migration vs mock, HDLEC 0.623.
Knock-down of RELT came out at: cell type with impaired migration no change in either cell type; migration vs mock, HMBEC 0.993; migration vs mock, HDLEC 0.807.
